PubChem BioAssay AID504764 | Drosophila RNAi Screening Center | 2011
Assay: 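Knock-downs that raise or lower a Notch target reporter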 (primary screen). System: Drosophila Kc167 cells. Reagent: long dsRNA against Drosophila genes. Time to read-out: about 5 days (4 days dsRNA, then 24 h after transfection). Treatment: transfection of constitutively active membrane-tethered Notch lacking the extracellular domain, read 24 h later. Measurement: 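Light from a Notch-responsive E(spl)m3 luciferase reporter under active Notch, with control-promoter and no-Notch reporter wells to normalise; raw counts from paired wells a and b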. Direction: induced reporter light, run 1, well a and induced reporter light, run 1, well b: higher = more light from the Notch target reporter with active Notch; control promoter light, run 1, well a and control promoter light, run 1, well b: higher = more light from the viral control promoter (cell number, transfection, viability); uninduced reporter light, run 1, well a: higher = more light from the Notch target reporter without active Notch. Rule for the call: 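Hit if the duplicate-averaged log2 ratio of induced to control-promoter light gives a plate-wise z beyond ±2, or induced to uninduced beyond ±1.8; weak-control or discordant-duplicate wells dropped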. Calls: active = modifier hit (raised or lowered Notch signal); inactive = not a hit.
In all, the deposit lists about 22,000 reagents; shown is a random part of those that have a named target and a result. Of all reagents, 403 (1.9%) got an active call. 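Unnormalised raw counts per well; ratio z-scores behind the hit calls and whether each hit raises or lowers signal are not deposited.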 A plus sign joins genes that one reagent is predicted to hit. No sequences are given here. Not stated in the record: the amount of reagent.

| target gene | amplicon | induced reporter light, run 1, well a | induced reporter light, run 1, well b | control promoter light, run 1, well a | control promoter light, run 1, well b | uninduced reporter light, run 1, well a | activity call |
| --- | --- | --- | --- | --- | --- | --- | --- |
| Traf4 | DRSC00445 | 1.62e5 | 1.40e5 | 1.42e5 | 1.31e5 | 9475 | inactive |
| Traf4 | DRSC00794 | 1.70e5 | 2.00e5 | 1.68e5 | 1.92e5 | 12380 | inactive |
| CG43896 | DRSC10754 | 1.59e5 | 1.45e5 | 2.06e5 | 1.53e5 | 9812 | inactive |
| TyrRS-m | DRSC04286 | 2.18e5 | 1.99e5 | 1.68e5 | 1.91e5 | 15855 | inactive |
| Cpr65Az | DRSC09882 | 1.64e5 | 1.57e5 | 1.59e5 | 1.47e5 | 9145 | inactive |
| Cpr65Az | DRSC22057 | – | – | – | – | – | active |
| mal | DRSC20581 | 1.13e5 | 95845 | 1.00e5 | 70110 | 8750 | inactive |
| Eig71Ec | DRSC11150 | 1.52e5 | 2.17e5 | 2.46e5 | 1.89e5 | 9845 | inactive |
| gkt | DRSC00821 | 1.64e5 | 1.08e5 | 1.67e5 | 1.40e5 | 9550 | inactive |
| CG12877 | DRSC14565 | 1.18e5 | 1.36e5 | 2.13e5 | 1.88e5 | 10980 | inactive |
| CG14829 | DRSC10199 | 3.44e5 | 2.61e5 | 4.18e5 | 2.68e5 | 19300 | inactive |
| CG13028 | DRSC09908 | 1.73e5 | 1.82e5 | 2.72e5 | 1.62e5 | 10192 | inactive |
| CG13050 | DRSC09931 | 1.75e5 | 1.59e5 | 2.05e5 | 2.73e5 | 9125 | inactive |
| CG8360 | DRSC03085 | 1.26e5 | 1.55e5 | 77305 | 1.11e5 | 18440 | inactive |
| Parp1 | DRSC07725 | 90795 | 89980 | 1.11e5 | 98875 | 7775 | inactive |
| Parp1 | DRSC07778 | 81595 | 1.05e5 | 1.63e5 | 1.68e5 | 5595 | inactive |
| Parp1 | DRSC07780 | 98270 | 1.31e5 | 1.92e5 | 1.90e5 | 8120 | inactive |
| Or59c | DRSC04633 | 2.13e5 | 1.82e5 | 1.38e5 | 1.89e5 | 14825 | inactive |
| bnl | DRSC13377 | 79315 | 63610 | 95730 | 67030 | 9515 | inactive |
| bnl | DRSC16913 | 10255 | 9895 | 11415 | 12335 | 5175 | inactive |
| Sirup | DRSC03031 | 1.54e5 | 1.96e5 | 90350 | 1.05e5 | 20755 | inactive |
| Ttc19 | DRSC02474 | 49420 | 44205 | 39880 | 54405 | 2560 | inactive |
| CG2540 | DRSC19856 | 1.53e5 | 1.69e5 | 2.22e5 | 1.79e5 | 14155 | inactive |
| CG14818 | DRSC18548 | 1.47e5 | 1.39e5 | 2.13e5 | 2.52e5 | 9205 | inactive |
| Sdhaf3 | DRSC15020 | 2.07e5 | 2.34e5 | 2.44e5 | 2.02e5 | 17780 | inactive |
| CG16734 | DRSC15143 | 1.30e5 | 96800 | 1.26e5 | 1.26e5 | 8345 | inactive |
| CG1236 | DRSC12203 | 1.47e5 | 1.42e5 | 1.52e5 | 1.12e5 | 11015 | inactive |
| CG8728 | DRSC07251 | 1.49e5 | 1.71e5 | 1.84e5 | 1.81e5 | 13555 | inactive |
| hng3 | DRSC08367 | 1.69e5 | 1.70e5 | 2.88e5 | 2.96e5 | 8095 | inactive |
| CG34454 | DRSC07864 | 2.00e5 | 2.05e5 | 2.09e5 | 2.33e5 | 15890 | inactive |
| apolpp | DRSC17216 | 1.62e5 | 1.74e5 | 2.19e5 | 2.22e5 | 13260 | inactive |
| CG33342 | DRSC13662 | 1.66e5 | 1.62e5 | 1.62e5 | 1.51e5 | 14405 | inactive |
| CG4669 | DRSC10440 | 1.72e5 | 1.22e5 | 1.04e5 | 53820 | 15050 | inactive |
| CG13921 | DRSC08390 | 90690 | 1.06e5 | 1.69e5 | 1.91e5 | 8540 | inactive |
| Polr3F | DRSC15785 | 1.04e5 | 93645 | 1.06e5 | 1.07e5 | 6860 | inactive |
| CG14017 | DRSC02348 | 1.47e5 | 1.41e5 | 1.52e5 | 1.61e5 | 9105 | inactive |
| Dus1 | DRSC00623 | 1.42e5 | 1.06e5 | 97050 | 67990 | 8925 | inactive |
| ppl | DRSC11899 | 1.27e5 | 1.11e5 | 82555 | 98565 | 9460 | inactive |
| CG2113 | DRSC08554 | 1.42e5 | 1.22e5 | 2.23e5 | 1.53e5 | 12910 | inactive |
| l(2)34Fc | DRSC01910 | 1.32e5 | 1.46e5 | 1.75e5 | 1.82e5 | 12175 | inactive |
| vls | DRSC02101 | 1.68e5 | 1.85e5 | 1.42e5 | 1.44e5 | 11305 | inactive |
| CG9932 | DRSC03275 | 1.18e5 | 1.20e5 | 1.04e5 | 1.16e5 | 9160 | inactive |
| CG6788 | DRSC20007 | 89880 | 77960 | 95685 | 85840 | 10950 | inactive |
| CG31406 | DRSC12777 | 1.71e5 | 1.50e5 | 1.46e5 | 1.37e5 | 11660 | inactive |
| CG14186 | DRSC10185 | 1.57e5 | 1.25e5 | 70765 | 93430 | 11590 | inactive |
| CG4768 | DRSC19917 | 1.28e5 | 1.18e5 | 1.34e5 | 1.13e5 | 10525 | active |
| CG8813 | DRSC00706 | 2.34e5 | 2.04e5 | 1.94e5 | 1.93e5 | 15605 | inactive |
| Rpn11 | DRSC03422 | 6230 | 4055 | 6630 | 6010 | 338 | inactive |
| TTLL6B | DRSC15932 | 1.24e5 | 1.26e5 | 1.87e5 | 1.75e5 | 10760 | inactive |
| CG11905 | DRSC09863 | 1.10e5 | 1.13e5 | 79900 | 87940 | 9525 | inactive |
| pip | DRSC11382 | 1.29e5 | 1.00e5 | 1.04e5 | 79325 | 8765 | inactive |
| rdo | DRSC02452 | 1.67e5 | 1.28e5 | 82595 | 95470 | 13470 | inactive |
| Pka-R1 | DRSC11674 | 89230 | 83260 | 51050 | 54565 | 6695 | inactive |
| Pka-R1 | DRSC11875 | 96530 | 1.10e5 | 81800 | 91915 | 8610 | inactive |
| slmo + CG34179 | DRSC03143 | 53905 | 68265 | 55020 | 57365 | 4935 | inactive |
| Uba3 | DRSC06377 | 1.45e5 | 1.38e5 | 1.65e5 | 1.81e5 | 14525 | inactive |
| SerRS | DRSC00496 | 45340 | 57455 | 44295 | 56060 | 4990 | inactive |
| CG13807 | DRSC08342 | 94705 | 1.09e5 | 1.87e5 | 1.54e5 | 7010 | inactive |
| Cyp28a5 | DRSC03297 | 2.87e5 | 3.29e5 | 2.96e5 | 2.99e5 | 23820 | inactive |
| Ndc1 | DRSC15895 | 280 | 332 | 415 | 695 | 45 | inactive |
| CG5928 | DRSC18391 | 1.23e5 | 1.10e5 | 2.09e5 | 2.39e5 | 7210 | inactive |
| RpS27 | DRSC14244 | 60980 | 47925 | 57905 | 70010 | 3660 | inactive |
| Scgbeta | DRSC15854 | 75045 | 61105 | 80270 | 61355 | 3700 | inactive |
| Cpsf73 | DRSC16291 | 1.29e5 | 1.10e5 | 85430 | 83320 | 7670 | active |

In a second layout: 9 of the entries above.
{"target gene": "CG33342", "amplicon": "DRSC13662", "induced reporter light, run 1, well a": 1.66e5, "induced reporter light, run 1, well b": 1.62e5, "control promoter light, run 1, well a": 1.62e5, "control promoter light, run 1, well b": 1.51e5, "uninduced reporter light, run 1, well a": 14405, "activity call": "inactive"}
{"target gene": "CG4669", "amplicon": "DRSC10440", "induced reporter light, run 1, well a": 1.72e5, "induced reporter light, run 1, well b": 1.22e5, "control promoter light, run 1, well a": 1.04e5, "control promoter light, run 1, well b": 53820, "uninduced reporter light, run 1, well a": 15050, "activity call": "inactive"}
{"target gene": "CG13921", "amplicon": "DRSC08390", "induced reporter light, run 1, well a": 90690, "induced reporter light, run 1, well b": 1.06e5, "control promoter light, run 1, well a": 1.69e5, "control promoter light, run 1, well b": 1.91e5, "uninduced reporter light, run 1, well a": 8540, "activity call": "inactive"}
{"target gene": "Polr3F", "amplicon": "DRSC15785", "induced reporter light, run 1, well a": 1.04e5, "induced reporter light, run 1, well b": 93645, "control promoter light, run 1, well a": 1.06e5, "control promoter light, run 1, well b": 1.07e5, "uninduced reporter light, run 1, well a": 6860, "activity call": "inactive"}
{"target gene": "CG14017", "amplicon": "DRSC02348", "induced reporter light, run 1, well a": 1.47e5, "induced reporter light, run 1, well b": 1.41e5, "control promoter light, run 1, well a": 1.52e5, "control promoter light, run 1, well b": 1.61e5, "uninduced reporter light, run 1, well a": 9105, "activity call": "inactive"}
{"target gene": "Dus1", "amplicon": "DRSC00623", "induced reporter light, run 1, well a": 1.42e5, "induced reporter light, run 1, well b": 1.06e5, "control promoter light, run 1, well a": 97050, "control promoter light, run 1, well b": 67990, "uninduced reporter light, run 1, well a": 8925, "activity call": "inactive"}
{"target gene": "ppl", "amplicon": "DRSC11899", "induced reporter light, run 1, well a": 1.27e5, "induced reporter light, run 1, well b": 1.11e5, "control promoter light, run 1, well a": 82555, "control promoter light, run 1, well b": 98565, "uninduced reporter light, run 1, well a": 9460, "activity call": "inactive"}
{"target gene": "CG2113", "amplicon": "DRSC08554", "induced reporter light, run 1, well a": 1.42e5, "induced reporter light, run 1, well b": 1.22e5, "control promoter light, run 1, well a": 2.23e5, "control promoter light, run 1, well b": 1.53e5, "uninduced reporter light, run 1, well a": 12910, "activity call": "inactive"}
{"target gene": "l(2)34Fc", "amplicon": "DRSC01910", "induced reporter light, run 1, well a": 1.32e5, "induced reporter light, run 1, well b": 1.46e5, "control promoter light, run 1, well a": 1.75e5, "control promoter light, run 1, well b": 1.82e5, "uninduced reporter light, run 1, well a": 12175, "activity call": "inactive"}
